Paper PMC12040169 (PLOS Biology, 2025)
This is one part of the list.

Each compound was assayed on T1, CTL2-GFP (C. trachomatis L2/434/Bu, GFP-expressing). Details: bulk GFP, single well; 28.5 h, 10 µM; inhibitor.
T1 construct: L2/434/Bu, GFP-expressing
Set-up: species or system HeLa; Intracellular C. trachomatis growth in HeLa cells, bulk GFP fluorescence relative to DMSO

Compound	% of control remaining
COc1ccc(CNc2ccc(C3c4ccsc4CCN3C(C)=O)cc2)cc1 (stereo not drawn) [CBK286444]	123.971%
CC12CCC(C(=O)O)(c3nc4cc([N+](=O)[O-])ccc4nc31)C2(C)C (stereo not drawn) [CBK266577K]	96.4982%
COc1ccc(-c2noc(CSc3nnc(-c4cccs4)n3-c3ccccc3)n2)cc1 [CBK268390]	90.1737%
Cc1cc(C)n(Cc2cccc(C(=O)NC(C)Cc3ccccn3)c2)n1 (stereo not drawn) [CBK281449]	95.6844%
CC(C)c1ccc(-c2csc(Nc3cccc(C(=O)O)c3)n2)cc1 [CBK299880]	111.045%
CC1CCN(S(=O)(=O)c2ccc3c(c2)oc(=O)c2cc(S(=O)(=O)N4CCC(C)CC4)ccc23)CC1 [CBK266314]	196.882%
COc1ccc(CNC(=O)c2cnc(-c3ccc(F)cc3)c(-c3ccc(C(C)=O)s3)c2)cc1 [CBK036577]	151.054%
O=S(=O)(Nc1nc2c(s1)CCCC2)c1cc(Cl)ccc1Cl [CBK096578]	106.902%
CCCC(=O)c1ccc(S(=O)(=O)N2CCN(CCCOC3CCCCO3)CC2)cc1 (stereo not drawn) [CBK062858]	70.2302%
CC(=O)Nc1cccc(CN(C)C(CCO)c2ccccc2)c1 (stereo not drawn) [CBK305127]	131.287%
O=C(O)c1cccc(NS(=O)(=O)c2ccc3c(c2)CN(C(=O)C(F)(F)F)CC3)c1 [CBK155709]	134.847%
O=C(Nc1ccncc1)c1c(O)c2ccccc2[nH]c1=O [CBK288017]	121.134%
COc1ccc2[nH]cc(CCNC(=O)N3CCN(CCN4CCOCC4)CC3)c2c1 [CBK155818]	112.606%
CC(CNC(=O)c1cncc(Br)c1)NC(=O)c1cncc(Br)c1 (stereo not drawn) [CBK262040]	106.084%
CC(=O)Nc1ccc(OCC(O)Cn2c(CO)nc3ccccc32)cc1 (stereo not drawn) [CBK304549]	118.64%
CCN(CC)C(=O)Cc1cc(C(=O)O)c2ccccc2n1 [CBK286942]	94.8179%
Cc1nc(-c2ccc(N3CC(C(N)=O)CCC3C)nc2)[nH]c(=O)c1C (stereo not drawn) [CBK306463]	82.1227%
CC1(C)CC(N(Cc2ccc(F)cc2)Cc2c[nH]cn2)CC(C)(C)N1 [CBK282540]	126.602%
CC(=O)c1cccc(NS(=O)(=O)c2ccc(OC(F)(F)F)cc2)c1 [CBK043606]	121.837%
O=C1CC(c2ccccc2)c2snc(C(=O)O)c2N1 (stereo not drawn) [CBK287111]	115.845%
O=C(CN(c1cccc(Cl)c1)S(=O)(=O)c1ccccc1)NN=C1CCCCCC1 [CBK262519]	120.1%

Single values from above.
Entry of O=C(O)c1cccc(NS(=O)(=O)c2ccc3c(c2)CN(C(=O)C(F)(F)F)CC3)c1 [CBK155709] under % of control remaining: 134.847%
Entry of COc1ccc2[nH]cc(CCNC(=O)N3CCN(CCN4CCOCC4)CC3)c2c1 [CBK155818] under % of control remaining: 112.606%
